These are yes or no findings as the source states them, for the method shown. Binding seen in cells or lysates may run through a third protein. Some results given as binding are weak or reduced against the parent protein; the word gives no strength. Tags and fused reporters may be left off the sequences shown.
T1: GST-Bim1^185–344 (S. cerevisiae) (UniProt P40013)
T1 sequence: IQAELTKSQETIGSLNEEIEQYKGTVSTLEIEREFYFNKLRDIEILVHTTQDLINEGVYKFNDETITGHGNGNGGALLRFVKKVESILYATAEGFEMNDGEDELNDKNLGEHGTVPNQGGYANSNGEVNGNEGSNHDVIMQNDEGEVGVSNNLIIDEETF

B1: Duo1 subunit within recombinant Dam1^WTc (natural protein, S. cerevisiae, UniProt P53168 1-247, looked up)
chain: MSEQSQLDDSTIDKLIPQIFNEMRSNLNNTTNKFPKSTGGGASDNISANSNSIRSFNSITTQSLLKESESLDKITAMIKNVTAALKNNLPVYVNQVHEVCKSTNSILDSWINIHSQAGYIHKLMSDQTYLKLINDRLHNENVNTNDEDGSTLHNVIALKKKEILDLRQKLENRKGEKDAAPAKPPNQGLNPRYGVQSGRRPVPSAGISNNGRVRKTHVPASKRPSGIPRVTNRWTKPTASSSRKMFR
notes: Duo1, subunit of the Dam1 complex, S. cerevisiae; Stood in the cross-linking experiment as a subunit of m1; source: E. coli, purified as part of Dam1c
B2: Duo1^ΔSxIP-6xFlag (protein, UniProt P53168)
chain: MSEQSQLDDSTIDKLIPQIFNEMRSNLNNTTNKFPKSTGGGASDNISANSNSIRSFNSITTQSLLKESESLDKITAMIKNVTAALKNNLPVYVNQVHEVCKSTNSILDSWINIHSQAGYIHKLMSDQTYLKLINDRLHNENVNTNDEDGSTLHNVIALKKKEILDLRQKLENRKGEKDAAPAKPPNQGLNPRYGVQSGRRPVPSAGISNNGRVRKTHVPASKRPRVTNRWTKPTASSSRKMFR
B3: Duo1^ΔC(R223Stop)-6xFlag (domain or fragment, UniProt P53168 1-222)
chain: MSEQSQLDDSTIDKLIPQIFNEMRSNLNNTTNKFPKSTGGGASDNISANSNSIRSFNSITTQSLLKESESLDKITAMIKNVTAALKNNLPVYVNQVHEVCKSTNSILDSWINIHSQAGYIHKLMSDQTYLKLINDRLHNENVNTNDEDGSTLHNVIALKKKEILDLRQKLENRKGEKDAAPAKPPNQGLNPRYGVQSGRRPVPSAGISNNGRVRKTHVPASK

What follows are binders tested against T1, GST-Bim1^185–344 (S. cerevisiae) (assay: pull-down; GST-Bim1 185-344 on glutathione sepharose beads, soluble yeast cell lysates (2 µg/µl), 4°C 15-120 min, washes with 300 mM NaCl; Duo1-6xFlag by Western blot; also lysates of mps1-737 cells at 30 or 37°C (reduced at 37°C), mps1-as1 cells with 1NM-PP1 (similar effect) and pGal-Mps1 cells in galactose (increased); only the target purified).

Binder | binding
B1 | binds
B2 | no binding
B3 | no binding

— publication PMC8441410, “Phospho‐regulated Bim1/EB1 interactions trigger Dam1c ring assembly at the budding yeast outer kinetochore” (The EMBO Journal, 2021)
